Assay results published in article PMC4861126.
No constants are given. Whether binding was seen depends on the method and setting.

By UniProt entry, the sequences of proteins in these tests, tags left out.
UniProt P15064: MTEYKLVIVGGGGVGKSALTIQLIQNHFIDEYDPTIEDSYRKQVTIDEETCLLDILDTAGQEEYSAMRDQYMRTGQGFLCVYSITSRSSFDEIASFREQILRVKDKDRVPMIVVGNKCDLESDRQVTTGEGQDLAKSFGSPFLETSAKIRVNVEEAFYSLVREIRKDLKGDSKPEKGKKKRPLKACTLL

Biological target: RasG loaded with mGppNHp (UniProt P15064)
Assay: GDI (guanine nucleotide dissociation inhibition) assay, fluorescence; mGppNHp labelled G-protein with indicated amounts of RA-TalB, 200 fold excess of GppNHp, 25 °C; 50 mM Tris-HCl pH 7.5, 5 mM MgCl2, 50 mM NaCl, 5 mM DTE; Kd from dependence of kobs on RA-TalB concentration; both purified

binding: no binding (tested: 100 μM)
B1: Dictyostelium RA-TalB domain (residues 1-122) (domain or fragment, UniProt Q54K81 1-122)
chain: MSLTLKIQIVRDKQVKAMKFSPTQTVAEVCAQVREKINETSGDDHGLFQPGIDAKRPSRWLKMDKTLQFYDLKINDELDYKKKHRPLKVRLMDETVKTMLVDDSLTAGEILEIIGKRIGIKN
